Out of some 310,000 compounds screened, about 17,000 (5.5%) were called active. The shares of active, inactive and inconclusive entries below differ from those in the screen. Calls come from the whole dose curve; as a rule, active = well fitted inhibition curve with a large enough effect; inconclusive = small, poorly fitted or top-dose-only effect, or effect the other way; inactive = no such curve, though single readings can be large or run the other way. Potencies beside an inconclusive call are fits to weak or partial responses and may not hold up.
biological target: Nuclear receptor ROR-gamma (Mus musculus) (UniProt P51450); test: qHTS for inhibitors of ROR gamma transcriptional activity; details: Drosophila S2 Gal4-RORgamma UAS-luciferase reporter, 20 h; activity change, negative = inhibition: at 53.6 µM (top of the series); note: nearly all actives have a fitted effect of over 60% in size
Summary of the method: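 Compounds are pin-transferred onto Drosophila Schneider cells expressing a copper-inducible Gal4–ROR gamma transactivation domain fusion. After 1 hr, copper sulfate is added to 700 uM final; luciferase is read 20 hr later.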
% is set by controls: 0 for no effect and ±100 for the full control effect; potency is the fitted concentration of half-maximal effect.

By UniProt entry, the sequences of proteins in these tests, tags left out. Where a name states a change or a piece, a line headed by the entry shows the natural chain unless it says otherwise.
UniProt P51450: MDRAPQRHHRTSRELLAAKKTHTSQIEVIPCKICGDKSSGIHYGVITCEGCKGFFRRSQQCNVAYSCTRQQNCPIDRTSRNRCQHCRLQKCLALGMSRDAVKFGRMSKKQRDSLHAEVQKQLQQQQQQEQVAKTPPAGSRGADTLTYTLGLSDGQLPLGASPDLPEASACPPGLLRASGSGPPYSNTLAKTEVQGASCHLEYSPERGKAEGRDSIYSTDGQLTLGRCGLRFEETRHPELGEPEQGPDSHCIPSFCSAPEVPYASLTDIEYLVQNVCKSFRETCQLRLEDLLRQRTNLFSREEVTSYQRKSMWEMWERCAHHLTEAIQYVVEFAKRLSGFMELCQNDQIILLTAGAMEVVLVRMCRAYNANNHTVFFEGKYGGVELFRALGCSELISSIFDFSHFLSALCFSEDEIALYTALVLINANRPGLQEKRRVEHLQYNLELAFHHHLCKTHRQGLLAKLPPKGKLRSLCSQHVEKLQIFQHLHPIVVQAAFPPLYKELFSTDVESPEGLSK

Activity change, negative = inhibition, inactive:
COCCNC(=S)N(CCc1c(C)[nH]c2ccc(F)cc12)Cc1cccnc1 -38%
Cc1ccc(CSc2ccc3nnc(-c4ccccn4)n3n2)cc1 13.1%
COc1cccc(C(=O)CN2CCN(S(=O)(=O)c3ccc(Br)cc3)CC2)c1 -38.2%
O=c1cc(Cl)c2ccccc2n1-c1ccccc1 2.4%
Cc1ccc2c(Cl)c(C(=O)Nc3cc(C)on3)sc2c1 26.5%
Cc1nc(-c2ccc(S(=O)(=O)Nc3ccc(Br)cc3F)cc2)co1 0%
COc1cc(/C=N/N2CCN(c3ccccc3OC)CC2)ccc1OC(C)=O 2.31%
Clc1nc2c(-c3ccccc3)nnn2c2ccccc12 -10.7%
COc1ccc(Oc2ncc3nc(-c4ccccc4)c(=O)n(Cc4cccs4)c3n2)cc1 0.289%
O=C(NC1CCCC1)C1CCN(c2nccs2)CC1 -11%
CN(C)CCCN=C(NO)c1ccc(Cl)cc1Cl 26.8%
CCOC(=O)c1ccc(-c2ccc(-c3cc(=O)oc4cc(OC)c(OC)c(OC)c34)cc2)cc1 3.76%
O=C(NC1CCCCC1)C(c1ccco1)N(C(=O)c1csnn1)c1cccc(Cl)c1 (stereo not given) -0.349%
Cc1n[nH]c(=O)c2c(NC(=O)CSc3nc4ccccc4c(=O)n3CCCO)oc(C)c12 25.5%
CC1CCN(C(=O)c2ccc(Br)c(S(=O)(=O)N3CCOCC3)c2)CC1 1.08%
CCn1ncc(Br)c1C(=O)Nc1ccc(F)c([N+](=O)[O-])c1 -16.9%
Cc1cccc(N(C)C(=O)c2cc(S(=O)(=O)N3CCCCC3)c[nH]2)c1 13%

Potency, inactive:
Cc1ccc(CNC(=O)C2(C(F)(F)F)C/C(=C\Cc3ccccc3)CCCO2)o1 (stereo not given)

Potency, inconclusive:
Cn1c(-c2ccccc2)cnc1SCC(=O)N1CCCc2ccccc21 15.8 µM [inhibitor, single point]
Cc1[nH]nc2c1C(c1ccsc1C)C(C#N)=C(N)O2 (stereo not given) 20 µM [activator, single point]
N#Cc1cc(-c2ccccc2)c[nH]c1=O 0.0708 µM [inhibitor, full curve, poor fit]
CCn1c(SCC(=O)Nc2cccc(OC)c2)nc2ccccc2c1=O 35.5 µM [activator, single point]
O=C(CCC(=O)N1CCN(S(=O)(=O)c2ccc(Cl)cc2)CC1)Nc1cccc(Br)c1 31.6 µM [activator, single point]
CCOC(=O)N1CCN(C(=O)CSCC(=O)Nc2nc(-c3ccc(C)cc3)cs2)CC1 12.6 µM [activator, partial curve]
CC(=O)c1c(NCc2ccccc2)nc(=O)n(-c2ccccc2)c1C 3.55 µM [activator, single point]
Cc1ccc2nc(SCC(=O)Nc3cc(C(C)(C)C)nn3-c3ccccc3)[nH]c2c1 5.62 µM [activator, full curve]
Cn1cccc1/C=C1\CCC/C(=C\c2cccn2C)C1=O 2 µM [activator, partial curve]
Cc1cc(C)cc(C(=O)Nc2ccc(NC(=O)c3cccs3)cc2)c1 22.4 µM [inhibitor, single point]
COC(=O)c1ccccc1NC1c2ccccc2C(=O)N1c1cccnc1 (stereo not given) 0.0178 µM [inhibitor, full curve]
COCCCN1C(=O)c2ccc(C(=O)NCCc3ccccc3)cc2C1=O 17.8 µM [inhibitor, single point]
COc1cccc2[nH]c(C(=O)NN)c(N)c12 14.1 µM [inhibitor, single point]
O=C(c1ccco1)N1CCC(c2nc3c(nnn3Cc3ccccc3Cl)c(=O)[nH]2)CC1 0.631 µM [activator, partial curve]
COc1ccc(Cl)cc1C(=O)NC1=NCCS1 35.5 µM [inhibitor, single point]
Cc1cc(C(=O)COC(=O)CC2Sc3ccccc3NC2=O)c(C)n1-c1cccc(C(F)(F)F)c1 (stereo not given) 11.2 µM [activator, partial curve]
COC(=O)c1ccc(CSc2ccc3nnc(-c4cccc(F)c4)n3n2)o1 35.5 µM [inhibitor, single point]
COc1ccc(F)cc1COc1nc(C)nc2ccccc12 5.62 µM [inhibitor, full curve]
Cc1nc(SCC(=O)Nc2nc3ccccc3s2)n[nH]1 2.82 µM [activator, partial curve]
O=C(Nc1ccc(Nc2ccccc2)cc1)C(Cl)(Cl)Cl 31.6 µM [activator, single point]
COc1ccccc1-n1c(SCC(=O)N2CCCCC2)nnc1-c1ccccc1O 15.8 µM [inhibitor, partial curve]
CCNC1=C(Cl)C(=O)c2ccccc2C1=O 35.5 µM [inhibitor, single point]
C=C1CCN(C(CC(C)C)C(=O)OC)S(=O)(=O)c2ccccc21 (stereo not given) 35.5 µM [activator, single point]
COc1ccc(OCC(=O)N2CCN(S(=O)(=O)c3ccccc3[N+](=O)[O-])CC2)cc1 12.6 µM [activator, partial curve]
C=CCNc1nc2ccccc2nc1NS(=O)(=O)c1ccc(Br)cc1 8.91 µM [activator, partial curve]
O=C(CSc1n[nH]c(-c2ccccn2)n1)Nc1ccccc1 15.8 µM [inhibitor, single point]

Arranged by formula weight (rising): some entries from above
Potency, inconclusive:
C=C1CCN(C(CC(C)C)C(=O)OC)S(=O)(=O)c2ccccc21 (stereo not given) 35.5 µM [activator, single point]
COC(=O)c1ccccc1NC1c2ccccc2C(=O)N1c1cccnc1 (stereo not given) 0.0178 µM [inhibitor, full curve]
Cn1c(-c2ccccc2)cnc1SCC(=O)N1CCCc2ccccc21 15.8 µM [inhibitor, single point]

Next part.

Potency, active:
CC(=O)c1ccc(NC(=S)NC2CCCC(C)C2C)cc1 (stereo not given) 5.01 µM
CCN1C(=O)/C(=C\C=C2/C=CC=CN2CC)SC1=S 8.91 µM
CC(C)NC(=S)N/N=C/c1ccc2c(c1)OCCO2 2.24 µM
Cc1cccc(NC(=S)N2CCN(c3ccccc3)CC2)c1 10 µM
COc1cc2[nH]c(=S)n(Cc3ccccc3)c(=O)c2cc1OC 3.16 µM
O=C(Nc1nc(-c2ccccn2)cs1)c1ccc(Br)s1 1.26 µM

Source: PubChem BioAssay AID2551 (National Center for Advancing Translational Sciences (NCATS), 2010)
